{"source": "patent US9889087B2", "about": "“Intranasal delivery of β2-adrenergic receptor agonists for improving cognition in humans with down syndrome and compositions therefor” (priority 2014, dated 2018)", "key": {"[1]": {"system": "interleukins", "settings": "cited from earlier work"}, "[2]": {"system": "Ts65Dn and 2N mice", "experimental": "At the end of this period, all mice were anesthetized, perfused, and the brain was extracted. The right hemisphere from each brain was fixed in 4% paraformaldehyde followed by dehydration. The methodology for staining has been published before. […] The left hemisphere was flash frozen and used for gene expression studies.\nBefore all staining(s), to inhibit endogenous peroxidase, 70-μm-thick floating sections were pre-incubated in 0.5% H2O2 in 50% methanol for 30 minutes at RT. This was followed by pre-incubating the sections in 0.1% triton and 10% normal serums(s) (NS, Vector Labs) for 1 hour at RT. This was followed by incubation in primary antibodies overnight at RT. […] For DCX staining the sections were kept in pre-warmed (37° C.) for 30 minutes before staining. This was followed by incubation in secondary anti-bodies that were diluted in 0.1% triton and corresponding 1% NS. The sections were then incubated in ABC Lite (1:1000, Vector) for 1 hour. Staining was terminated by incubating in DAB (0.66 mg/ml in tris-HCl) for 5-10 minutes."}, "[3]": {"system": "Ts65Dn and 2N mice", "assay": "Open field activity", "type": "in vivo, mouse", "settings": "P=0.011 central, P=0.017 peripheral", "experimental": "a) Open Field Activity. Prior to testing, the mice were handled for five days for habituation. […] Four hours later, the mice were tested for open field activity. The open field arena (450 mm×450 mm) had visual cues on the walls. […] The arena was cleaned after each session."}, "[4]": {"system": "Fgf2 mRNA", "settings": "DG micro-punches"}}, "note": "Like-named read-outs stand apart in the source and are kept apart here."}
{"molecule": "COc1ccc(CC(C)NCC(O)c2ccc(O)c(NC=O)c2)cc1", "note": "(centres unmarked) [formoterol]", "values": [{"measurement": "gene expression for IL-1β and IL-1 receptor-II", "setting": "[1]; IP injections in rodents, cortical and hippocampal samples", "value": "significant increase"}, {"measurement": "expression of interleukins particularly IL-10 in the hippocampus", "setting": "[1]; intraperitoneal injections in rodents", "value": "significant increase"}, {"measurement": "distance of GFAP-positive profiles from the DGC layer", "setting": "[2]; 2N mice", "value": "No significant effects"}, {"measurement": "density of GFAP-positive cell bodies or their processes", "setting": "[2]; DG, 2N and Ts65Dn mice", "value": "no effects"}, {"measurement": "distance of GFAP-positive profiles from the DGC layer", "setting": "[2]; Ts65Dn mice", "value": "significant increase"}, {"measurement": "number of bouts (entries between central and peripheral area)", "setting": "[3]", "value": "significant reduction"}, {"measurement": "increase in Fgf2 gene expression", "setting": "[4]; 2N mice, P=0.044", "value": 80, "unit": "%"}, {"measurement": "increase in Fgf2 gene expression", "setting": "[4]; Ts65Dn mice, not significant", "value": 20, "unit": "%"}]}
